Data: PMC11963297
These are yes or no findings as the source states them, for the method shown. In cells and extracts the contact can be indirect. Binding can be weak; no strength is given. For some assays here: Sequences can lack the tags named with a protein.

Assays:
[1] = target: protein kinase C alpha (PKCα), endogenous (human (endogenous in U-251 MG)) (UniProt P17252); assay: co-IP; whole-cell extracts of U-251 MG cells (HEPES buffer with 1% NP-40, protease and phosphatase inhibitors) incubated with protein A beads preloaded with rabbit Ab to GIT1, GIT2 or PKCα or mAb TU-31 to γ-tubulin; immunoblot; endogenous proteins
[2] = target: T1, G protein-coupled receptor kinase-interacting protein 1 (GIT1), endogenous (human (endogenous in U-251 MG)) (UniProt Q9Y2X7); assay: as above
T1 sequence: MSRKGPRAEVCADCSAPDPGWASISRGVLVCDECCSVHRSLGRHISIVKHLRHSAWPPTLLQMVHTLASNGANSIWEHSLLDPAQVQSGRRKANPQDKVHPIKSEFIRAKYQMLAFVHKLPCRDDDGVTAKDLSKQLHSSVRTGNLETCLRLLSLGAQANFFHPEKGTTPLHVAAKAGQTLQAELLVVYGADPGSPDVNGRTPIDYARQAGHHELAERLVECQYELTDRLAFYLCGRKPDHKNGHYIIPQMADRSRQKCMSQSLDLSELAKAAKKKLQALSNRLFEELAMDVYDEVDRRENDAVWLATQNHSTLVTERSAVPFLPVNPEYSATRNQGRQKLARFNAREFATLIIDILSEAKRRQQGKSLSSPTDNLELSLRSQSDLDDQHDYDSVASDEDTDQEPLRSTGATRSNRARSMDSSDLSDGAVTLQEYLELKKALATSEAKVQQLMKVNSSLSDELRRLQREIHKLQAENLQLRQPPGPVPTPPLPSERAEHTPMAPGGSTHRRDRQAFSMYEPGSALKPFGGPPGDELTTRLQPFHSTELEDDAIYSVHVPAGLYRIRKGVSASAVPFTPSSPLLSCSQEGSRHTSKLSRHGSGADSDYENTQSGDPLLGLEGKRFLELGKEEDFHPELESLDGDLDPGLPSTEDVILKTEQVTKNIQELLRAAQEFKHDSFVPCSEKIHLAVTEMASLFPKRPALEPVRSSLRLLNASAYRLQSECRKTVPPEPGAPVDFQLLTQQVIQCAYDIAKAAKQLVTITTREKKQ

[3] = target: T2, G protein-coupled receptor kinase-interacting protein 2 (GIT2), endogenous (human (endogenous in U-251 MG)) (UniProt Q14161); assay: as above
T2 sequence: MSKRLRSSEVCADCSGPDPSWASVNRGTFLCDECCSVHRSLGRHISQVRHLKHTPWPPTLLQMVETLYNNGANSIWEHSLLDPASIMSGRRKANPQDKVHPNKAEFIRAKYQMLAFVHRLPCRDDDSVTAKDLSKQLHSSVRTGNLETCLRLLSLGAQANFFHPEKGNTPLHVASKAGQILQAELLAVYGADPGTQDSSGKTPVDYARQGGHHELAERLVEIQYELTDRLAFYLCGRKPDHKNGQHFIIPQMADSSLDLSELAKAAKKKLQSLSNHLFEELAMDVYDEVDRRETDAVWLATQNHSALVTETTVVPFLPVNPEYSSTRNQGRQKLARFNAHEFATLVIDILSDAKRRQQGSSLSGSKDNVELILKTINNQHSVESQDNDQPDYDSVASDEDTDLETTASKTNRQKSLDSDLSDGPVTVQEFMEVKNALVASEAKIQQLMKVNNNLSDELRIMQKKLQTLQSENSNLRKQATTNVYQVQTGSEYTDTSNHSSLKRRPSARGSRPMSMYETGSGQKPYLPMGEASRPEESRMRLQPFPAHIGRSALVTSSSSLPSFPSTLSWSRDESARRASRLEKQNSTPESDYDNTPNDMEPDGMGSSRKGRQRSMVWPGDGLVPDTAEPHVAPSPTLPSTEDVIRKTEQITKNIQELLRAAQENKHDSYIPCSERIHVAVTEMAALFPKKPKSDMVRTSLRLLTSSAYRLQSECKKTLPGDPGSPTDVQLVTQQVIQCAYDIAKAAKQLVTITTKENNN

[4] = target: T3, N-terminally GST-tagged full-length human GIT2 (tv1) (GST-GIT2) (human) (UniProt Q14161); assay: pull-down; GST-fusion proteins or GST alone immobilised on Glutathione-Sepharose and incubated with whole-cell extracts of U-251 MG cells; immunoblot; only the target purified
T3 sequence: T2 sequence

[5] = target: T4, N-terminally GST-tagged full-length human GIT1 (GST-GIT1) (human) (UniProt Q9Y2X7); assay: as above
T4 sequence: T1 sequence

[6] = target: T5, GST-tagged N-terminal ArfGAP domain of human GIT2, residues 1-124 (GST-GIT2(1-124)) (human) (UniProt Q14161); assay: as above
T5 sequence: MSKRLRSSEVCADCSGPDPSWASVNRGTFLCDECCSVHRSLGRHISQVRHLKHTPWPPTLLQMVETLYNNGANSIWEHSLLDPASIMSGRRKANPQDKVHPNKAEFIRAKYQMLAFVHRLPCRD

[7] = target: T6, C-terminally mNeonGreen-tagged human GIT1, transcript variant 1 (GIT1-NG) (human) (UniProt Q9Y2X7); assay: co-IP; whole-cell extracts of cells expressing GIT1-NG, GIT2-NG or NG alone; precipitation with anti-NG Ab or, reciprocally, anti-γ-tubulin Ab on protein A beads; immunoblot
T6 sequence: T1 sequence

[8] = target: T7, C-terminally mNeonGreen-tagged human GIT2, transcript variant 1 (GIT2-NG) (human) (UniProt Q14161); assay: as above
T7 sequence: T2 sequence

Measured: binding

γ-tubulin, endogenous (from UniProt P23258)
binds: all assays above
